In PubChem BioAssay AID248 (DTP/NCI, 2004) one finds survivor count and T/C data, which are given here for 28 compounds.

The list shows only some results of the screen, not a fair sample: it gathers tests that were run many times, whatever their T/C, doses with no T/C, and many T/C values between a quarter and a half above the control. Further doses and runs are listed elsewhere. T/C gives the treated animals as a percentage of the vehicle group. Some doses have a count of surviving animals in place of a T/C: the source files T/C as zero there, which appears to mark a toxic dose or a test without result, not a measured value. Some survivor counts are full or nearly so, which does not show that the dose was tolerated: the source hardly ever lists a survival T/C far under the control, and the zero likely stands for such cases as well. Survivors were counted at the toxicity check, usually on the fifth day, unless a day is given; later deaths do not show. Schedules are NCI's codes, read here as Q, the interval in days (D) or hours (H), X, the number of doses. Some structures stand for samples that the source files as different forms (salt, stereo form or complex); doses refer to the form tested. Some schedule codes hold Z or #, which are not explained here. For survival time, the PubChem record calls one and a half times the control and up active, and a quarter to a half above the control has no call in these data; cut-offs in other NCI protocols can differ. Some T/C values are followed by the survivors on the day toxicity was checked, most often the fifth; without a count, all were alive then.

For the assay, the system named is L1210 leukemia ip in BDF1 mice, survival T/C. The experiment in a line: NCI In Vivo Anticancer Drug Screen. Data for tumor model L1210 Leukemia (intraperitoneal) in B6D2F1 (BDF1) mice. Conditions: T/C endpoint: mean survival time, higher T/C = longer survival.
[1] abbreviates: dose: 400.0 mg/kg/injection, schedule: Q04DX003 (ip), vehicle: saline.
Where [2] appears, read: dose: 200.0 mg/kg/injection, schedule: Q04DX003 (ip), vehicle: Klucel (hydroxypropylcellulose) (HPC).
Setting [3] is: dose: 400.0 mg/kg/injection, schedule: Q04DX003 (ip), vehicle: Klucel (hydroxypropylcellulose) (HPC).
Where [4] appears, read: dose: 400.0 mg/kg/injection, schedule: Q01DX009 (ip), vehicle: saline with Tween-80.
Setting [5] is: dose: 100.0 mg/kg/injection, schedule: Q04DX003 (ip), vehicle: Klucel (hydroxypropylcellulose) (HPC).
[6] abbreviates: dose: 50.0 mg/kg/injection, schedule: Q01DX009 (ip), vehicle: saline with Tween-80.
[7] abbreviates: dose: 200.0 mg/kg/injection, schedule: Q01DX009 (ip), vehicle: saline with Tween-80.
[8] abbreviates: dose: 400.0 mg/kg/injection, schedule: Q04DX002 (ip), vehicle: saline with Tween-80.
Where [9] appears, read: dose: 100.0 mg/kg/injection, schedule: Q01DX001 (ip), vehicle: saline.
[10] abbreviates: dose: 100.0 mg/kg/injection, schedule: Q01DX009 (ip), vehicle: saline.
[11] abbreviates: dose: 50.0 mg/kg/injection, schedule: Q01DX009 (ip), vehicle: saline.
The mark [12] stands for this setting: dose: 100.0 mg/kg/injection, schedule: Q04DX003 (ip), vehicle: saline.
The mark [13] stands for this setting: dose: 200.0 mg/kg/injection, schedule: Q04DX003 (ip), vehicle: saline.

For the compound `COc1ccc2c(c1)c1c(C)c3cnccc3c(C)c1n2CC1CO1` (stereo not given), the survivor count (dose: 18.7 mg/kg/injection, schedule: Q01DX009 (ip), vehicle: saline with Tween-80) was 6 of 6; the survivor count (dose: 37.5 mg/kg/injection, schedule: Q01DX009 (ip), vehicle: saline with Tween-80) is reported as 6 of 6; the survivor count (dose: 75.0 mg/kg/injection, schedule: Q04DX003 (ip), vehicle: saline with Tween-80) was 6 of 6; the survivor count (dose: 150.0 mg/kg/injection, schedule: Q04DX003 (ip), vehicle: saline) is given as 10 of 10; the survivor count (dose: 300.0 mg/kg/injection, schedule: Q04DX003 (ip), vehicle: saline) is given as 10 of 10. In addition, the T/C (dose: 37.5 mg/kg/injection, schedule: Q04DX003 (ip), vehicle: saline with Tween-80) was 130 % of control.

For `CC1N(C)CCC1(C)CN1c2ccccc2Sc2ccccc21` (stereo not given), under setting [1], the survivor count was 3 of 6.

Take `CN1CCN(CCNC(c2ccccc2)C(O)c2ccccc2)CC1` (stereo not given): the survivor count by setting is: under setting [2], 1 of 6; under setting [3], 1 of 6.

Take `COc1ccc(C(CC(=O)c2ccc3c(c2)OCO3)c2c(O)c3ccccc3oc2=O)cc1OC` (stereo not given): the survivor count under setting [4] is on record as 5 of 6.

As to `Cc1cc(N(CCCCl)CCCCl)ccc1C=Nc1cccc(Cl)c1`, the survivor count reads like this: under setting [5], 5 of 6; under setting [2], 6 of 6; under setting [3], 6 of 6.

`O=C(CC(c1ccccc1)c1c(O)c2ccccc2oc1=O)c1ccccc1` (stereo not given): the survivor count is on record as 5 of 6 (dose: 6.25 mg/kg/injection, schedule: Q01DX009 (ip), vehicle: saline with Tween-80); 5 of 6 (dose: 12.5 mg/kg/injection, schedule: Q01DX009 (ip), vehicle: saline with Tween-80); 1 of 6 (dose: 25.0 mg/kg/injection, schedule: Q01DX009 (ip), vehicle: saline with Tween-80); 3 of 6 under setting [6]; 0 of 6 (dose: 100.0 mg/kg/injection, schedule: Q01DX009 (ip), vehicle: saline with Tween-80); 1 of 6 under setting [7]. For the same compound, the survivor count under setting [4] is 4 of 6.

Take `COc1cc(C(=O)N2CC2)cc(OC)c1OC`: the survivor count by setting is: (dose: 100.0 mg/kg/injection, schedule: Q01DX009 (ip), vehicle: water) 5 of 6; (dose: 200.0 mg/kg/injection, schedule: Q01DX009 (ip), vehicle: water) 0 of 6; (dose: 400.0 mg/kg/injection, schedule: Q01DX009 (ip), vehicle: water) 0 of 6.

For `CC(C)(CCCCC(C)(C)NC(=O)Nc1ccc(Cl)c(Cl)c1)NC(=O)Nc1ccc(Cl)c(Cl)c1`, the survivor count (dose: 400.0 mg/kg/injection, schedule: Q01DX001 (ip), vehicle: carboxymethylcellulose (CMC)) is on record as 4 of 4.

Turning to `CC1(c2ccc(O)cc2)CCC(C(C)(C)c2ccc(O)cc2)CC1` (stereo not given), the survivor count under setting [4] was 5 of 6.

Consider `CCCC(=O)Oc1ccc(/C=N/NC(N)=S)nc1`, for which the T/C runs as follows: under setting [6], 132 % of control; (dose: 200.0 mg/kg/injection, schedule: Q04DX002 (ip), vehicle: saline with Tween-80) 133 % of control; under setting [8], 133 % of control.

Turning to `CCC1(O)C(=O)OCc2c1cc1n(c2=O)CCC1` (stereo not given), the T/C under setting [9] was 125 % of control.

As to `CCN(CC)c1ccc(C=Nc2cccc(C(F)(F)F)c2)cc1`, for the setting “dose: 400.0 mg/kg/injection, schedule: Q01DX009 (ip), vehicle: Klucel (hydroxypropylcellulose) (HPC)”, the survivor count was 4 of 6.

Consider `CCCC=C(CCCC)CCCC`, for which the survivor count under setting [8] was 1 of 3.

Regarding `CCOC(OCC)c1nc(N)c2cnn(C)c2n1`, the survivor count was 5 of 6 under setting [10]; 1 of 3 (dose: 200.0 mg/kg/injection, schedule: Q04DX002 (ip), vehicle: saline); 0 of 3 (dose: 400.0 mg/kg/injection, schedule: Q04DX002 (ip), vehicle: saline).

Turning to `CC(CN1CCN(CCOCCO)CC1)CN1c2ccccc2Sc2ccccc21` (stereo not given), the survivor count runs as follows: under setting [11], 3 of 6; under setting [12], 2 of 4; under setting [13], 0 of 4; under setting [1], 0 of 4.

As for `CSc1ccc(NC(=O)Oc2cc3ccccc3cc2C(=O)Nc2ccccc2)cc1`, the survivor count under setting [8] was 3 of 3.

For the compound `CC1=NCCc2cc3[nH]c4ccccc4c3cc21`, the survivor count runs as follows: (dose: 200.0 mg/kg/injection, schedule: Q01DX001 (ip), vehicle: Klucel (hydroxypropylcellulose) (HPC)) 0 of 6; (dose: 400.0 mg/kg/injection, schedule: Q01DX001 (ip), vehicle: Klucel (hydroxypropylcellulose) (HPC)) 0 of 6.

With `CC(=O)SC1CC(=O)OC1=O` (stereo not given), where the note is “dose: 200.0 mg/kg/injection, schedule: Q01DX009 (ip), vehicle: saline”, the survivor count is 6 of 6.

For `Clc1ccc(/C(=N\OC(c2ccccc2)c2ccccc2)c2ccccc2)cc1`, under setting [9], the survivor count is listed as 6 of 6.

As for `O=C(O)c1cc(S(=O)(=O)F)cc(S(=O)(=O)F)c1`, the survivor count by setting is: under setting [7], 0 of 6; under setting [4], 0 of 6.

Take `c1ccc2c(NC3=NCCO3)c3ccccc3nc2c1`: the survivor count reads like this: (dose: 100.0 mg/kg/injection, schedule: Q04DX003 (ip), vehicle: saline with Tween-80) 3 of 6; (dose: 200.0 mg/kg/injection, schedule: Q04DX003 (ip), vehicle: saline with Tween-80) 0 of 6; (dose: 400.0 mg/kg/injection, schedule: Q04DX003 (ip), vehicle: saline with Tween-80) 0 of 6.

As for `c1ccc([P+](Cc2nc3ccccc3[nH]2)(c2ccccc2)c2ccccc2)cc1`, the survivor count was 6 of 6 under setting [11]; 5 of 6 under setting [10]; 0 of 3 (dose: 200.0 mg/kg/injection, schedule: Q01DX009 (ip), vehicle: Klucel (hydroxypropylcellulose) (HPC)).

Take `[Cl][Nd]([Cl])[Cl]`: the survivor count by setting is: under setting [10], 6 of 6; under setting [1], 3 of 6.

Take `COc1cc(C=Nc2cccc(Cl)c2)ccc1N(CCCl)CCCl`: the survivor count (dose: 50.0 mg/kg/injection, schedule: Q01DX015 (ip), vehicle: carboxymethylcellulose (CMC)) was 4 of 6; the survivor count (dose: 75.0 mg/kg/injection, schedule: Q01DX015 (ip), vehicle: carboxymethylcellulose (CMC)) was 2 of 6; the survivor count (dose: 100.0 mg/kg/injection, schedule: Q01DX015 (ip), vehicle: carboxymethylcellulose (CMC)) is listed as 1 of 6; the survivor count (dose: 100.0 mg/kg/injection, schedule: Q01DX Z (ip), vehicle: carboxymethylcellulose (CMC)) is reported as 3 of 6. Moreover, the T/C (dose: 50.0 mg/kg/injection, schedule: Q01DX Z (ip), vehicle: carboxymethylcellulose (CMC)) was 133 % of control [4 of 6 alive].

As for `CN(C)/N=N/c1nc[nH]c1C#N`, the survivor count under setting [4] is recorded as 0 of 6.

For `O=C(O)COc1cc(F)c([N+](=O)[O-])cc1[N+](=O)[O-]`, under “dose: 400.0 mg/kg/injection, schedule: Q04DX002 (ip), vehicle: Klucel (hydroxypropylcellulose) (HPC)”, the survivor count is 1 of 3.

As for `C=CC[n+]1ccccc1Cc1ccccc1`, the survivor count reads like this: (dose: 50.0 mg/kg/injection, schedule: Q04DX003 (ip), vehicle: saline) 6 of 6; (dose: 100.0 mg/kg/injection, schedule: Q01DX001 (ip), vehicle: saline with Tween-80) 0 of 3; under setting [12], 0 of 1; (dose: 200.0 mg/kg/injection, schedule: Q01DX001 (ip), vehicle: saline with Tween-80) 0 of 3; under setting [13], 0 of 6; (dose: 400.0 mg/kg/injection, schedule: Q01DX001 (ip), vehicle: saline with Tween-80) 0 of 3. For the same compound, the survivor count under setting [1] is given as 0 of 6.

In the case of `Cc1cc(C(=O)O)c(C)n1-c1ccccc1C(=O)O`, the survivor count under setting [5] is given as 6 of 6, the survivor count under setting [2] is listed as 6 of 6 and the survivor count under setting [3] is on record as 6 of 6.
